This note sets out measurements from publication PMC7751685.

These are yes or no findings as the source states them, for the method shown. Binding seen in cells or lysates may run through a third protein.

The target in assay [1] is T1, B55δ regulatory subunit of PP2A (endogenous) (human (endogenous in BT549)) (UniProt Q66LE6).
T1 sequence: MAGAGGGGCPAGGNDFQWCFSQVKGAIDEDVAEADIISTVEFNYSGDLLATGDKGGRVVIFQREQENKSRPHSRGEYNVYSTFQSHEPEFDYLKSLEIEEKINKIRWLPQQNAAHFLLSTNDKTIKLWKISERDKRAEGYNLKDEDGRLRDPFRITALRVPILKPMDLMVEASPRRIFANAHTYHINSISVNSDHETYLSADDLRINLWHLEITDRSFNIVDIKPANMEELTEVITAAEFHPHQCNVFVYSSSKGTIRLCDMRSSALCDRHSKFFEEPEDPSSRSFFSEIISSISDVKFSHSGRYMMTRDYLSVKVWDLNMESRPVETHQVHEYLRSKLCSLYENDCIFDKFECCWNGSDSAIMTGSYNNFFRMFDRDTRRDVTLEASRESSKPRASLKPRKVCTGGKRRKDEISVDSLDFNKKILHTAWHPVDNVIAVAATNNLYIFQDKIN
Nature of the assay: co-IP; endogenous proteins, BT549 and HS578T lysates in NETN buffer; IP with anti-CDC25B, anti-PP2A-C, anti-B56δ, anti-B55δ or anti-AMPKα against control IgG; cells also treated with metformin, LB100, siAMPK, siCDC25B, siB56δ, CDC25B knockout or CDC25B overexpression.

The target in assay [2] is CDC25B (endogenous) (human (endogenous in BT549 and HS578T)). The assay is described as above.

As for “CDC25B (endogenous) (human (endogenous in BT549 and HS578T))”, the binding entry in assay [1] is “no binding”.

B1: B55δ regulatory subunit of PP2A (endogenous) (protein, UniProt Q66LE6 1-453)
chain: MAGAGGGGCPAGGNDFQWCFSQVKGAIDEDVAEADIISTVEFNYSGDLLATGDKGGRVVIFQREQENKSRPHSRGEYNVYSTFQSHEPEFDYLKSLEIEEKINKIRWLPQQNAAHFLLSTNDKTIKLWKISERDKRAEGYNLKDEDGRLRDPFRITALRVPILKPMDLMVEASPRRIFANAHTYHINSISVNSDHETYLSADDLRINLWHLEITDRSFNIVDIKPANMEELTEVITAAEFHPHQCNVFVYSSSKGTIRLCDMRSSALCDRHSKFFEEPEDPSSRSFFSEIISSISDVKFSHSGRYMMTRDYLSVKVWDLNMESRPVETHQVHEYLRSKLCSLYENDCIFDKFECCWNGSDSAIMTGSYNNFFRMFDRDTRRDVTLEASRESSKPRASLKPRKVCTGGKRRKDEISVDSLDFNKKILHTAWHPVDNVIAVAATNNLYIFQDKIN
In the case of B1, the binding result in assay [2] is given as “no binding”.
